PMC12386296
Results are given in words; binding and its absence hold for the method and conditions named. Some binding calls cover weakened binding; strength is not graded here.

Sequences of proteins named here, by UniProt entry; tags and fusion partners are left off. A change or cut given only in a name is not applied to a line headed by its entry. A line that says so, or that is headed by a name, gives the form on record, which may keep a tag or linker.
AT1R M2 mutant (T332A/S335A/T336A/S338A), treated with GRK3 (P30556, form named): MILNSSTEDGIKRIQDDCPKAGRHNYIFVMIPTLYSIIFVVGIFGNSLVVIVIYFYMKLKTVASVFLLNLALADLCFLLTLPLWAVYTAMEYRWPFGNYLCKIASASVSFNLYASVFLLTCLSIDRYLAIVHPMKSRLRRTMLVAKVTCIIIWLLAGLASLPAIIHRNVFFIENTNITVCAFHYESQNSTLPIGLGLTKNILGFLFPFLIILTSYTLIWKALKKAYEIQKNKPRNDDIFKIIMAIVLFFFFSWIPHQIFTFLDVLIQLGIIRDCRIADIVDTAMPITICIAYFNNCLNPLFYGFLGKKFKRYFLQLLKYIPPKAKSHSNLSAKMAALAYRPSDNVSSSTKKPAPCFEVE
AT1R M1 mutant (S326A/S328A/S331A), treated with GRK3 (P30556, form named): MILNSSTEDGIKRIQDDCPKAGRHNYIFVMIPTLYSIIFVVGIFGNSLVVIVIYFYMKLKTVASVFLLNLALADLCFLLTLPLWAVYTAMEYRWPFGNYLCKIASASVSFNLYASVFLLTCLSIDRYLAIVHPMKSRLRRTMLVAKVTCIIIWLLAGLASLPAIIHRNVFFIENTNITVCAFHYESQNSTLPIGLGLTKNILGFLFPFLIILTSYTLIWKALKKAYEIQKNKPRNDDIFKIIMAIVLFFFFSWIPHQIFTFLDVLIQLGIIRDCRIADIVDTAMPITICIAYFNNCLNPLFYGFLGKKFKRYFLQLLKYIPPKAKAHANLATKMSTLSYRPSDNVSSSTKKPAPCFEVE
AT1R M3 mutant (S346A/S347A/S348A/T349A), treated with GRK3 (P30556, form named): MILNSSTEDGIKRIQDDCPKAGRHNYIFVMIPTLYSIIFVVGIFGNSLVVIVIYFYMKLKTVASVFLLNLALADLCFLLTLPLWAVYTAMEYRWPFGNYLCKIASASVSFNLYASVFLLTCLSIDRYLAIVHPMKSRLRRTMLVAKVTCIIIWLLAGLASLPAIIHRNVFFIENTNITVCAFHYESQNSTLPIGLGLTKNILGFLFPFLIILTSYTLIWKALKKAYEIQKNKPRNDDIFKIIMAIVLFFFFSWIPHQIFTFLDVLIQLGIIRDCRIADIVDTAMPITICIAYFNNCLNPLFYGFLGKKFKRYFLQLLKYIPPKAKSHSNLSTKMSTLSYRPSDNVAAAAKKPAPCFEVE
β-arrestin1, engineered (I386A/V387A/F388A, 7C stabilizing mutations, truncated at residue 393) (P49407, form named): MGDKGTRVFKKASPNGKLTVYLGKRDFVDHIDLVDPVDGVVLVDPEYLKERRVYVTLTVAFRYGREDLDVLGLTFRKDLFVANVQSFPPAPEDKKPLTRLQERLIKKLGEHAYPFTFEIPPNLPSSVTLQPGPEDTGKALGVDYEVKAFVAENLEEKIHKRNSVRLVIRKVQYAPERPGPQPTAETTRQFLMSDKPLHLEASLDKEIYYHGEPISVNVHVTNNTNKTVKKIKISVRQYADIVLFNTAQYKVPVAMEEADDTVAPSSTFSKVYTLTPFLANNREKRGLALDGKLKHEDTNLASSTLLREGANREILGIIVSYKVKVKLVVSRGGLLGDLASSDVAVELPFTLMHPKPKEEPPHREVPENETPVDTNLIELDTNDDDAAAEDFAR

Experiments:
Assay in all cases: pull-down; MBP pull-down on amylose resin; GRK-phosphorylated MBP-AT1R (AngII) incubated with β-arrestin at a 1.5-fold molar ratio at 25 °C for 30 min, then 3 h with resin; wash 20 mM HEPES, 100 mM NaCl, 0.002% LMNG, 2 mM MgCl2, 10 μM ligand; eluted with 2 mM maltose; analysed by SDS-PAGE; both purified
[1] = target: AT1R wild type, phosphorylated in vitro by GRK6 (human) (UniProt P30556)
[2] = target: AT1R M2 mutant (T332A/S335A/T336A/S338A), treated with GRK2 (human) (UniProt P30556)
[3] = target: AT1R M1 mutant (S326A/S328A/S331A), treated with GRK2 (human) (UniProt P30556)
[4] = target: AT1R M3 mutant (S346A/S347A/S348A/T349A), treated with GRK2 (human) (UniProt P30556)
[5] = target: AT1R M1 mutant (S326A/S328A/S331A), treated with GRK3 (human) (UniProt P30556)
[6] = target: AT1R wild type, phosphorylated in vitro by GRK2 (human) (UniProt P30556)
[7] = target: AT1R wild type, phosphorylated in vitro by GRK3 (human) (UniProt P30556)
[8] = target: AT1R wild type, phosphorylated in vitro by GRK5 (human) (UniProt P30556)
[9] = target: AT1R M3 mutant (S346A/S347A/S348A/T349A), treated with GRK3 (human) (UniProt P30556)
[10] = target: AT1R M2 mutant (T332A/S335A/T336A/S338A), treated with GRK3 (human) (UniProt P30556)

β-arrestin1, engineered (I386A/V387A/F388A, 7C stabilizing mutations, truncated at residue 393) (from UniProt P49407 1-393)
binding [1]: binds
binding [2]: binds weakly
binding [3]: binds weakly
binding [4]: binds weakly
binding [5]: binds weakly
binding [6]: binds weakly
binding [7]: binds weakly
binding [8]: binds
binding [9]: binds weakly
binding [10]: binds weakly
